From publication PMC5013389
Results are given in words; binding and its absence hold for the method and conditions named. Binding seen in cells or lysates may run through a third protein. Some entries that bind do so weakly or less than the wild type.

Amino acid sequences for entries named in this document (tags omitted).
UniProt Q96RU7: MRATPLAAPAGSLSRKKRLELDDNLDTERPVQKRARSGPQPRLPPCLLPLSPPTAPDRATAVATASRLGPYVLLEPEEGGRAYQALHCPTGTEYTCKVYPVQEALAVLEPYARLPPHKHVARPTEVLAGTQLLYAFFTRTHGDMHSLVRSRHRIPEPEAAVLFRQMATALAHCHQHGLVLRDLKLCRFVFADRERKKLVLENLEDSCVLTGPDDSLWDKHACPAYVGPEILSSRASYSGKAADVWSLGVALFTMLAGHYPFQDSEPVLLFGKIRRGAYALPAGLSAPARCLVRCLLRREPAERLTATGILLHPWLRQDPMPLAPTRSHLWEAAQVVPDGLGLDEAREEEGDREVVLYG
UniProt O14733: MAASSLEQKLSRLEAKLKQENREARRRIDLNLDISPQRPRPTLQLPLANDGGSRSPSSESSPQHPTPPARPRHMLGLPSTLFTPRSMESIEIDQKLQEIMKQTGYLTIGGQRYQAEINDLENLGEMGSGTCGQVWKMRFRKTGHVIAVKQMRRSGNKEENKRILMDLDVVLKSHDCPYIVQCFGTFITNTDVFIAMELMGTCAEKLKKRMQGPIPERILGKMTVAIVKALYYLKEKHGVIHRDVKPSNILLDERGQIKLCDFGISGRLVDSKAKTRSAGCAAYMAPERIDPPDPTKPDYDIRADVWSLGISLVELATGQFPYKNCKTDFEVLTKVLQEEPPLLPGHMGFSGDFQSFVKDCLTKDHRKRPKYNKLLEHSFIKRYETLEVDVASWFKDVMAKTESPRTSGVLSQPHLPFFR

Target: endogenous TRIB3 of HepG2 cells (human (endogenous in HepG2)) (UniProt Q96RU7)
Test: co-IP; endogenous TRIB3 immunoprecipitated from HepG2 lysate with anti-TRIB3 (ab50516) on protein G-Sepharose, HEPES lysis buffer with 0.3% CHAPS, 1 h at 4 °C; MKK7 detected by Western blot; cells transfected with siRNA against TRIB1, TRIB2, TRIB3 or non-targeting control

binding: binds
Substance: endogenous MKK7 of HepG2 cells (from UniProt O14733 1-419)
